Data taken from US6645916B1, “2,4-diamino-1,3,5-triazines, their preparation and their use as herbicides and plant growth regulators” (Hoechst Schering AgrEvo GmbH, priority 1997, dated 2003).
Some entries share one result that the patent states for a list of compounds.

What was measured:
[1] = tested on: harmful plants which are typical for rice crops, for example Cyperus monti, Eleocharis acicularis, Echinochloa crus-galli and Sagittaria pygmaea; assay: Action on weeds in rice (paddy rice conditions, visual rating); format: in vivo, typical rice weeds (gramineous and broad-leaved); details: poured into the dammed water, different dosages, about three weeks after application, by comparison with untreated controls
[2] = tested on: harmful plants such as Sorghum halepense, Digitaria adscendens, Setaria pumila, Avena fatua, Galium aparine, Polygonum persicaria, Veronica persica, Amaranthus …; assay: Post-emergence action against weeds (greenhouse pot test, visual rating); format: in vivo, monocotyledonous and dicotyledonous weeds; details: applied post-emergence at the three-leaf stage at a rate of 1.25 kg or less of active substance per hectare, about 3 to 4 weeks, by comparison with untreated controls
[3] = tested on: harmful plants such as Stellaria media, Matricaria inodora, Sorghum halepense, Digitaria adscendens, Setaria pumila, Avena fatua, Galium aparine, Polygonum …; assay: Preemergence action against weeds (greenhouse pot test, visual rating); format: in vivo, monocotyledonous or dicotyledonous weed plants; details: applied pre-emergence at a rate of 1.25 kg of active substance per hectare, 3 to 4 weeks, by comparison with untreated controls

Row | Compound | herbicidal activity (visual rating of the damage to the plants) [1] | herbicidal activity (visual rating) [2] | herbicidal activity (visual rating of damage to the plants or negative effect on emergence) [3]
1 | CCC(COc1cccc(Cl)c1Cl)Nc1nc(N)nc(C(C)C)n1 (stereo not drawn) [Example 490] | very good herbicidal activity | herbicidal activity | herbicidal activity
2 | Cc1ccc(OCC(C)Nc2nc(N)nc(C(C)(C)F)n2)cc1Cl (stereo not drawn) [Example 492] | very good herbicidal activity | herbicidal activity | herbicidal activity
3 | Cc1ccc(Cl)cc1OCC(C)Nc1nc(N)nc(C(C)(C)F)n1 (stereo not drawn) [Example 493] | very good herbicidal activity | herbicidal activity | herbicidal activity
4 | Cc1cc(OCC(C)Nc2nc(N)nc(C(C)(C)F)n2)cc(OC(C)C)c1 (stereo not drawn) [Example 496] | very good herbicidal activity | herbicidal activity | herbicidal activity
5 | CCC(COc1ccc(C)c(Cl)c1)Nc1nc(N)nc(C(C)(C)F)n1 (stereo not drawn) [Example 500] | very good herbicidal activity | herbicidal activity | herbicidal activity
